Experimental findings from the supplement of paper PMC8728848 are described below.

The list shows a part of the results.

Common to all, as to experiment: glycan array binding signal (z-score within array); higher = stronger binding
Common to all, as to conditions: glycan notation: IUPAC condensed, linker removed

The target in assay [1] is GlcNAc(b1-3)Gal(b1-4)GlcNAc(b1-3)Gal(b1-4)GlcNAc(b1-2)Man(a1-3)[GlcNAc(b1-3)Gal(b1-4)GlcNAc(b1-3)Gal(b1-4)GlcNAc(b1-2)Man(a1-6)]Man(b1-4)GlcNAc(b1-4)[Fuc(a1-6)]GlcNAc. The method, boiled down: (§1)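 The binding signal is a Z-score computed within each array. Data were drawn from 3228 arrays in the Consortium for Functional Glycomics database, restricted to those with a known protein sequence. Scores were averaged over arrays of the same protein sequence at different concentrations or buffers, and over linkers, and negative values can be taken as non-binding.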

For assay [2], the target named is GlcNAc(b1-3)Gal(b1-4)GlcNAc(b1-3)Gal(b1-4)GlcNAc(b1-2)[GlcNAc(b1-3)Gal(b1-4)GlcNAc(b1-3)Gal(b1-4)GlcNAc(b1-6)]Man(a1-6)[GlcNAc(b1-3)Gal(b1-4)GlcNAc(b1-3)Gal(b1-4)GlcNAc(b1-2)Man(a1-3)]Man(b1-4)GlcNAc(b1-4)[Fuc(a1-6)]GlcNAc. The method, boiled down: as §1
In assay [3] the target is GlcNAc(b1-3)Gal(b1-4)GlcNAc(b1-3)Gal(b1-4)GlcNAc(b1-3)Gal(b1-4)GlcNAc(b1-2)Man(a1-3)[GlcNAc(b1-3)Gal(b1-4)GlcNAc(b1-3)Gal(b1-4)GlcNAc(b1-3)Gal(b1-4)GlcNAc(b1-2)Man(a1-6)]Man(b1-4)GlcNAc(b1-4)GlcNAc. The method, boiled down:
as §1

Assay [4] has as its target GlcNAc(b1-3)Gal(b1-4)GlcNAc(b1-3)Gal(b1-4)GlcNAc(b1-3)Gal(b1-4)GlcNAc(b1-2)Man(a1-3)[GlcNAc(b1-3)Gal(b1-4)GlcNAc(b1-3)Gal(b1-4)GlcNAc(b1-3)Gal(b1-4)GlcNAc(b1-2)Man(a1-6)]Man(b1-4)GlcNAc(b1-4)[Fuc(a1-6)]GlcNAc. The gist of the method: as §1
Assay [5] concerns the target GlcNAc(b1-3)Gal(b1-4)GlcNAc(b1-3)Gal(b1-4)GlcNAc(b1-3)Gal(b1-4)GlcNAc(b1-2)[GlcNAc(b1-3)Gal(b1-4)GlcNAc(b1-3)Gal(b1-4)GlcNAc(b1-3)Gal(b1-4)GlcNAc(b1-6)]Man(a1-6)[GlcNAc(b1-3)Gal(b1-4)GlcNAc(b1-3)Gal(b1-4)GlcNAc(b1-3)Gal(b1-4)GlcNAc(b1-2)Man(a1-3)]Man(b1-4)GlcNAc(b1-4)[Fuc(a1-6)]GlcNAc. The method, boiled down: as §1
Assay [6] concerns the target GlcNAc(b1-3)Gal(b1-4)GlcNAc(b1-3)Gal(b1-4)GlcNAc(b1-3)Gal(b1-4)GlcNAc(b1-3)Gal(b1-4)GlcNAc(b1-2)Man(a1-3)[GlcNAc(b1-3)Gal(b1-4)GlcNAc(b1-3)Gal(b1-4)GlcNAc(b1-3)Gal(b1-4)GlcNAc(b1-3)Gal(b1-4)GlcNAc(b1-2)Man(a1-6)]Man(b1-4)GlcNAc(b1-4)GlcNAc. The method, boiled down: as §1
Assay [7] addresses GlcNAc(b1-3)Gal(b1-4)GlcNAc(b1-3)Gal(b1-4)GlcNAc(b1-3)Gal(b1-4)GlcNAc(b1-3)Gal(b1-4)GlcNAc(b1-2)Man(a1-3)[GlcNAc(b1-3)Gal(b1-4)GlcNAc(b1-3)Gal(b1-4)GlcNAc(b1-3)Gal(b1-4)GlcNAc(b1-3)Gal(b1-4)GlcNAc(b1-2)Man(a1-6)]Man(b1-4)GlcNAc(b1-4)[Fuc(a1-6)]GlcNAc. The method, boiled down:
as §1

Assay [8] concerns the target GlcNAc(b1-3)Gal(b1-4)GlcNAc(b1-3)Gal(b1-4)GlcNAc(b1-3)Gal(b1-4)GlcNAc(b1-3)Gal(b1-4)GlcNAc(b1-2)[GlcNAc(b1-3)Gal(b1-4)GlcNAc(b1-3)Gal(b1-4)GlcNAc(b1-3)Gal(b1-4)GlcNAc(b1-3)Gal(b1-4)GlcNAc(b1-6)]Man(a1-6)[GlcNAc(b1-3)Gal(b1-4)GlcNAc(b1-3)Gal(b1-4)GlcNAc(b1-3)Gal(b1-4)GlcNAc(b1-3)Gal(b1-4)GlcNAc(b1-2)Man(a1-3)]Man(b1-4)GlcNAc(b1-4)[Fuc(a1-6)]GlcNAc. The gist of the method: as §1

Assay [9] deals with GlcNAc(b1-3)Gal(b1-4)GlcNAc(b1-3)Gal(b1-4)GlcNAc(b1-3)GalNAc. The method, boiled down: as §1
In assay [10] the target is GlcNAc(b1-3)Gal(b1-4)GlcNAc(b1-3)GalNAc. The gist of the method: as §1
The target in assay [11] is GlcNAc(b1-3)Gal(b1-4)GlcNAc(b1-3)[GlcNAc(b1-3)Gal(b1-4)GlcNAc(b1-3)]GalNAc. The method, boiled down:
as §1

Assay [12] concerns the target GlcNAc(b1-3)Gal(b1-4)GlcNAc(b1-6)[Gal(b1-3)]GalNAc. The gist of the method:
as §1

For assay [13], the target named is GlcNAc(b1-3)Gal(b1-4)GlcNAc(b1-6)[GlcNAc(b1-3)Gal(b1-3)]GalNAc. The gist of the method:
as §1

In assay [14] the target is GlcNAc(b1-3)Gal(b1-4)GlcNAc(b1-6)[GlcNAc(b1-3)]Gal(b1-4)GlcNAc. The gist of the method:
as §1

Another assay has as its target GlcNAc(b1-3)GalNAc. The method, boiled down:
as §1

In a further assay the target is GlcNAc(b1-3)Man. The gist of the method:
as §1

For assay [15], the target named is GlcNAc(b1-3)[GlcNAc(b1-4)][GlcNAc(b1-6)]GlcNAc. The gist of the method:
as §1

For assay [16], the target named is GlcNAc(b1-3)[GlcNAc(b1-6)]Gal(b1-4)GlcNAc. The gist of the method:
as §1

Assay [17] concerns the target GlcNAc(b1-3)[GlcNAc(b1-6)]GalNAc. The gist of the method: as §1
Assay [18] addresses GlcNAc(b1-4)Gal(b1-4)GlcNAc. The gist of the method: as §1
The target of a further assay is GlcNAc(b1-4)GlcNAc. The gist of the method:
as §1

Assay [19] deals with GlcNAc(b1-4)GlcNAc(b1-4)GlcNAc. The gist of the method:
as §1

Assay [20] deals with GlcNAc(b1-4)GlcNAc(b1-4)GlcNAc(b1-4)GlcNAc(b1-4)GlcNAc. The gist of the method: as §1

B1: PX9961KLbvu-535-38-535 (Bacteroides vulgatus) (protein)
chain: DKAYTDAESYTKGLHKIYSVWALSGQDGSSSSDISGLDAGNTALLRCWWTLQEQPTDEMKNAWNDAWCTEVNYMTWTTNKVEPIEGVYQRCMYIVALVNEFLKNIPNAPESIDKESYIAQARFNRAFAYYVLMDMFALPPFITEKNYSIEPAPLSREDLFNWIEAELNEIKPNLPSPRSEYGVADQAVASALLARMYLNAEIYTGKARYTECINACNEVIKAGYQLADNYADLFKADNGENPDTKKEIIYPIIFDGDKTQSWGMAAIIIGARGAEDKDVLLAHSGVDQGWAGFRATSNLVHLFDFQNDEEPKASEIQDKRGIFYDKGRSIDITSSVSGTFETEGWSVFKFSNLNSNGQPGKNTLWVDTDFPMFRLGDIYLMYAEAVARGGEGSKASAVEYINALRKRAYGDDKHNISENWLEENNFRNLLDERGRELYWEGIRRTDLVRFDLLTSGSYTWDFKGGINTGVGVNKRYNVYPIPVTDLTVNGNLQQNEGY
B1: the “glycan array binding signal (z-score)” value in assay [1] was 1.82; in [2], 0.595; in assay [3], -0.182; in assay [4], 1.31; in assay [5], 0.082; in assay [6] it was 0.062. The “glycan array binding signal (z-score)” value in [7] is 0.09; in assay [8], 1.39; in assay [9] it was -0.909; in [10], 0.654; in assay [11], 0.426; in assay [12], -0.359. Further, the “glycan array binding signal (z-score)” value in assay [13] is -0.248; in assay [14], -0.8; with GlcNAc(b1-3)GalNAc, -0.231; with GlcNAc(b1-3)Man, -0.076; in assay [15], -0.666; in assay [16], -0.966. Moreover, the “glycan array binding signal (z-score)” value is -0.101 in assay [17]; -1.05 in assay [18]; -0.268 with GlcNAc(b1-4)GlcNAc; -1.19 in assay [19]; -0.429 in assay [20].
